Some of the results follow. Shown are side measurements of this screen, not its main read-out; they come without a call. Most of these compounds were active or inconclusive in the main read-out, so they are no random draw. The note in brackets gives the kind of curve behind each potency; many fits are weak.

A short description of this assay: qHTS Assay for Lipid Storage Modulators in Drosophila S3 Cells.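 On cell number change: cells counted by Cell Tracker Red CMTPX staining in the red channel.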 As to conditions: BODIPY lipid droplet fluorescence, 18-24 h; for cell number change: measured here: cell count max response, cells fed with added oleic acid. The method, boiled down: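 Drosophila S3 cells loaded with oleic acid (400 uM, as added) and compounds at several concentrations; lipid droplets imaged by 488-nm laser-scanning cytometry, 500–530 nm intensity and object ratio to cell channel. Percent activity normalized to 20 uM Triacsin C.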

[1] abbreviates: measured here: cell number channel AC50, cells fed with added oleic acid.
[2] abbreviates: measured here: lipid fluorescence (Fed channel) AC50, cells fed with added oleic acid.

Regarding `CCN1CCN(C(=O)CN(C)S(=O)(=O)c2ccc(Cl)cc2)CC1`, the cell number change was -38.7%. In addition, under setting [1], the AC50 (as a rule, the concentration giving half of the maximal activity seen) was 3.66 µM [falling, full curve]. Moreover, the AC50 under setting [2] was 3.66 µM [falling, full curve].

Turning to `CCCC(=O)Nc1c(-c2ccc(OC)cc2)c(=O)c2ccccc2n1C`, under setting [1], the AC50 is 0.00461 µM [rising, full curve, poor fit].

Turning to `CCN(c1ccccc1)S(=O)(=O)c1ccc(OCC(=O)N2CCCC2)cc1`, the cell number change is -43.1%. Moreover, the AC50 under setting [1] was 0.92 µM [falling, partial curve]. The concentration at half-maximal activity (AC50) under setting [2] was 1.84 µM [falling, partial curve].

As to `C#CCOC(=O)C(NC(=O)c1ccccc1)=C1CCCCC1`, the cell number change came to 68.7%. Further, the AC50 under setting [1] was 18.4 µM [rising, partial curve]. Moreover, under setting [2], the AC50 is 2.31 µM [rising, partial curve, poor fit].

In the case of `O=C(N/N=C/c1ccc(O)cc1)c1cccc(C(F)(F)F)c1`, the cell number change is 9.15%.

Turning to `Nc1cc2c(cc1[N+](=O)[O-])OCCOCCOCCO2`, the cell number change is 9.23%. For the same compound, the AC50 under setting [2] is 29.1 µM [rising, single point].

With `CCOc1ccccc1NC(=O)COC(=O)c1ccc(S(=O)(=O)N2CCCC2)cc1`, the cell number change is -83.5%. The AC50 under setting [1] is 23.1 µM [falling, single point].

Take `CCC(C)[C@H](NC(=O)N1CCn2c1nc1ccccc12)C(=O)NCCc1ccc(OC)c(OC)c1` (stereo partly specified): the cell number change was determined as 13.1%.

For `Cc1ccc(NC(=O)c2cnn(-c3ccccc3)c2C)c(C)c1`, the cell number change amounted to 11.9%.

Turning to `CCCCc1nc(SCC(=O)N2CCOCC2)c2c(=O)n(C)c(=O)n(C)c2n1`, the cell number change is -36.3%. Also, the AC50 under setting [1] was 35.5 µM [falling, single point]. In addition, under setting [2], the AC50 is 12.6 µM [falling, single point].

As to `COC(=O)c1ccn(C(=O)c2ccc(Cl)cc2)n1`, the cell number change stood at 0.955%. Further, the concentration at half-maximal activity (AC50) under setting [2] was 0.411 µM [falling, full curve].

As for `CCNC(=S)N(CCc1c(C)[nH]c2ccccc12)Cc1cccnc1`, the cell number change turned out to be 14.9%. For the same compound, the AC50 under setting [2] was 0.00517 µM [rising, full curve, poor fit].

As to `CCC(=O)N1c2ccc(S(=O)(=O)N3CCN(c4ccc([N+](=O)[O-])cc4)CC3)cc2CC1C` (stereo unspecified), the cell number change was -21.1%. Also, the AC50 under setting [2] is 29.1 µM [falling, single point].

Turning to `Fc1cccc(Cc2noc(CN3CCC(c4ccncc4)CC3)n2)c1`, the cell number change is -22.2%. The concentration at half-maximal activity (AC50) under setting [2] is 32.6 µM [falling, single point].

For `CCN(CC(=O)Nc1cc(S(=O)(=O)N2CCOCC2)ccc1C)Cc1ccccc1`, the cell number change was -50%. For the same compound, the half-maximal activity concentration (AC50) under setting [1] was 1.3 µM [falling, full curve].

Take `CCC(C(=O)Nc1ccc(C(=O)O)cc1NC(=O)C(CC)c1ccccc1)c1ccccc1` (stereo unspecified): the cell number change is -1.75%. Moreover, the AC50 under setting [2] was 0.116 µM [rising, full curve, poor fit].

As for `COc1ccccc1NC(=O)c1cccc(NC(=O)c2ccco2)c1`, the cell number change is -29.7%.

Consider `CC1(C)CC(=O)C2=C(C1)NC1=C(C(=O)c3ccccc31)C2c1ccccc1` (stereo unspecified), for which the cell number change was -1.52%. For the same compound, the AC50 under setting [2] is 10.3 µM [rising, partial curve, poor fit].

For the compound `CN1CCN(C(=O)/C=C/c2c(F)cccc2Cl)CC1`, the cell number change is 1.49%. Moreover, the concentration at half-maximal activity (AC50) under setting [2] is 29.1 µM [rising, single point].

For `CCOc1ccc(CCNC(=O)C2CCN(c3nn4c(=O)cc(C)nc4s3)CC2)cc1OCC`, the AC50 under setting [2] is 0.13 µM [falling, full curve, poor fit].

As for `CCN(CC)CCCN1C(=O)C(=O)/C(=C(/O)c2ccc(Cl)cc2)C1c1ccccn1` (stereo unspecified), the cell number change was -7.71%. Further, the AC50 under setting [2] is 20.6 µM [falling, single point].

On to `CCO[C@H]1OC(C(=O)O)=C[C@@H](c2ccc(C(F)(F)F)cc2)[C@@H]1CCCO`, for which the cell number change was -0.795%. The AC50 under setting [2] is 0.00461 µM [falling, full curve, poor fit].

As for `CNC(=O)c1ccc(OCc2ccccc2)c(OC)c1`, the cell number change turned out to be 0.674%. The AC50 under setting [2] was 5.8 µM [rising, single point].

For `COc1ccc(C(CNC(=O)c2sccc2C)N2CCOCC2)cc1` (stereo unspecified), the cell number change came out at 13.8%. In addition, the AC50 under setting [1] was 6.51 µM [rising, single point]. Besides, the AC50 under setting [2] was 6.51 µM [rising, partial curve, poor fit].

For `CCC1CCCCN1CCCNC(=O)c1nn(C)c2c1CS(=O)(=O)c1ccccc1-2` (stereo unspecified), the AC50 under setting [1] was 3.26 µM [rising, partial curve, poor fit].

`Cc1ccc(Cl)cc1NC(=O)C1CCCN(S(=O)(=O)c2c(C)noc2C)C1` (stereo unspecified): the cell number change was -6.77%.

As to `Cn1nc(C(F)(F)F)c2cc(C(=O)Nc3ccc(F)c(Cl)c3)sc21`, the cell number change came to 27.3%. In addition, the AC50 under setting [2] was 0.58 µM [rising, single point].

For the compound `CC1(C)Cc2c(cnn2-c2ccccc2)C(=O)/C1=N\NC(=O)c1ccccc1O`, the cell number change came out at 23.5%. Besides, the concentration at half-maximal activity (AC50) under setting [2] is 16.4 µM [rising, partial curve].

Regarding `CCNc1nc(NCC)nc(SCCOc2ccc(C)cc2)n1`, the cell number change stood at 16.7%. The AC50 under setting [2] was 2.59 µM [rising, full curve].

Regarding `COc1cc(C(c2c(C)[nH][nH]c2=O)c2c(C)[nH][nH]c2=O)ccc1OS(=O)(=O)c1ccc(C)cc1`, the cell number change amounted to 0.724%. In addition, the AC50 under setting [1] was 0.411 µM [falling, full curve]. Besides, the AC50 under setting [2] was 4.11 µM [falling, single point].

Take `CCc1ccccc1NC(=O)c1ccc(NS(C)(=O)=O)cc1`: the AC50 under setting [2] was 29.1 µM [falling, single point].

For the compound `COC(=O)C1(C)CC1(c1ccccc1)c1ccccc1` (stereo unspecified), the cell number change is -40.2%. The AC50 under setting [1] is 16.4 µM [falling, partial curve, poor fit]. Moreover, the AC50 under setting [2] was 16.4 µM [falling, partial curve, poor fit].

Take `CS(=O)(=O)NN1C(=O)c2ccccc2NC12CCCC2`: under setting [2], the half-maximal activity concentration (AC50) is 6.51 µM [rising, partial curve, poor fit].

On to `COc1ccc(C(C(=O)NCC2CCCO2)N(C(=O)Cn2nnc3ccccc32)c2ccc(NC(C)=O)cc2)c(OC)c1` (stereo unspecified), for which the cell number change is -24.4%.

As for `Cc1occc1C(=O)Nc1cc(C(C)(C)C)on1`, the cell number change was determined as 181%. For the same compound, the AC50 under setting [1] is 20.6 µM [rising, partial curve]. In addition, the concentration at half-maximal activity (AC50) under setting [2] is 29.1 µM [rising, single point].

Consider `NC(=O)C1CCN(C2CC(=O)N(Cc3cccs3)C2=O)CC1` (stereo unspecified), for which the cell number change was -10.5%. In addition, under setting [2], the AC50 is 0.116 µM [falling, full curve].

`O=C(Nc1cc(=O)[nH]c2nc(-c3ccc(Cl)cc3)nn12)c1ccccc1`: the cell number change is 11.7%. The AC50 under setting [2] was 0.326 µM [rising, full curve, poor fit].

Source of the values: PubChem BioAssay AID2685 (National Center for Advancing Translational Sciences (NCATS), 2010).
